Assay results: PMC8892010
Changes are numbered by the printed parent chain. These are yes or no findings as the source states them, for the method shown. Binding seen in cells or lysates may run through a third protein. Some results given as binding are weak or reduced against the parent protein; the word gives no strength. Tags and fused reporters may be left off the sequences shown.

The chains behind the UniProt entries cited, without tags or fusion partners.
UniProt Q12791: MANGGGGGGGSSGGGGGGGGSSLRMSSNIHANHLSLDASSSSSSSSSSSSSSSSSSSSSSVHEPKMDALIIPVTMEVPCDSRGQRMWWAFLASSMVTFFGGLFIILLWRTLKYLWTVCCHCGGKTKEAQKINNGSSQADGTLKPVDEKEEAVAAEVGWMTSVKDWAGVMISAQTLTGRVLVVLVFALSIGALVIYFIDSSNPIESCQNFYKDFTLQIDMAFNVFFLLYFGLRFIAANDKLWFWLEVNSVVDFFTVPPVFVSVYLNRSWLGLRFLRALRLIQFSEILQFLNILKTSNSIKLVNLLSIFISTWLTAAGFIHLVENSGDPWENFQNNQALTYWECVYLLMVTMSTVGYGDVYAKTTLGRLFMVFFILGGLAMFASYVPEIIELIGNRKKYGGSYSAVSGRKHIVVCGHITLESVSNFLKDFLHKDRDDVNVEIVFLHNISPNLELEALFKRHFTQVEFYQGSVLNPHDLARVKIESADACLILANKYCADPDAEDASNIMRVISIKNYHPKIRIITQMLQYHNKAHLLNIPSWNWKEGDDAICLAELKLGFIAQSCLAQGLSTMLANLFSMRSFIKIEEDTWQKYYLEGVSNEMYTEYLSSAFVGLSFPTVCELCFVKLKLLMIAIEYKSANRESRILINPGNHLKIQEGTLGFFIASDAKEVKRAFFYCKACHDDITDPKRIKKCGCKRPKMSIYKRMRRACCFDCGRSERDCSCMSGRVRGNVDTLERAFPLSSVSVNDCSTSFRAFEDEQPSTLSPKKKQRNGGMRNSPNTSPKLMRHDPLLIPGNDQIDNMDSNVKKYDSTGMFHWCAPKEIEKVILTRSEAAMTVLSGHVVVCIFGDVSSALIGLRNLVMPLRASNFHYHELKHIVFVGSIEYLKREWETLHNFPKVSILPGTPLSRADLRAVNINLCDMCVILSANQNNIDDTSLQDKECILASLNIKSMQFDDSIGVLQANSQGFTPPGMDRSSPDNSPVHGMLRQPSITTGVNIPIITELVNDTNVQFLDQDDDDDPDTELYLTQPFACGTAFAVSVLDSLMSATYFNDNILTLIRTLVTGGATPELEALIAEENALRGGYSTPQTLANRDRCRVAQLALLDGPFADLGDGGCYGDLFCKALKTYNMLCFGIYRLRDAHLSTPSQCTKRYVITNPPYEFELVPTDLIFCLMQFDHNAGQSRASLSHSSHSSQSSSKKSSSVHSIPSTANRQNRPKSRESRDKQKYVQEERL

Legend:
[1] = target: T1, BK channel γ1 subunit (LRRC26), wild type, N-terminally FLAG-tagged (human) (UniProt Q2I0M4); assay: co-IP; cell surface immunoprecipitation: live HEK-293 cells coexpressing BKα and N-terminally FLAG-tagged γ1 incubated with rabbit polyclonal anti-FLAG antibody in PBS for 30 min at ambient temperature, lysed with 2% DDM in TBS, protein A agarose at 4 °C overnight; BKα detected by immunoblot and normalised to the γ1 band; cells treated with or without tunicamycin (5 μg/ml, 20 h)
T1 sequence (chain, N-linked glycan at N147 (absent after treatment of the cells with tunicamycin)): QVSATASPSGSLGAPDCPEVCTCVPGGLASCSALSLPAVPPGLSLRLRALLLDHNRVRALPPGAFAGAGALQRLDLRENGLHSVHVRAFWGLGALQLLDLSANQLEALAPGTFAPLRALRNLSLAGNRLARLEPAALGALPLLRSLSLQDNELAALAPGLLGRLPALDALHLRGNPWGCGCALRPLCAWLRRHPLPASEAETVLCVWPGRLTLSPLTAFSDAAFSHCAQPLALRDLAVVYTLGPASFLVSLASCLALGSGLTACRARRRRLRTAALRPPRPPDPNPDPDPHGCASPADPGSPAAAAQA

[2] = target: T2, BK channel γ1 subunit (LRRC26) N147Q mutant, N-terminally FLAG-tagged (human) (UniProt Q2I0M4); assay: as above
T2 sequence: T1 sequence (chain, N-linked glycan at N147 (absent after treatment of the cells with tunicamycin)) with N121Q

binding [1]: binds
binding [2]: binds
Substance: BK channel α subunit (BKα) (from UniProt Q12791 1-1236)
